Taken from: PubChem BioAssay AID1259308 (NCATS, 2017)
Aim: 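Candidate targets for better recombinant protein yield in mammalian cells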 (primary screen). Cell system: human HEK293 embryonic kidney cells stably expressing firefly luciferase (HEK-CMV-Luc2-Hygro). Reagents: single siRNA against human genes, 0.8 pmol siRNA per well. Duration: 72 h. Measurement: 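Luciferase light (ONE-Glo) measured on one replicate plate set and viability (CellTiter-Glo) on the other, scaled to a negative control siRNA, with robust z-scores and luciferase per cell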. Reading the numbers: total luciferase, z-score and total luciferase, % of control: higher = more reporter protein produced; luciferase per cell, z-score: higher = more reporter output per viable cell; viable cells, % of control: higher = more viable cells. Call rule: 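An siRNA counts as active if its total luciferase robust z-score exceeds 3; genes with two or more such siRNAs out of three were retested with fresh siRNAs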. Meaning of the calls: active = raised luciferase; inactive = no rise.
The whole screen tested about 59,000 reagents; below is a random part of them. Over the whole deposit, about 1,510 (2.6%) were called active. 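Calls use total luciferase alone and ignore viability, so some active siRNAs may act by altering cell number.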 Entries without a mark were called inactive. Reagents against one gene are numbered here.

| Target gene | reagent | total luciferase, z-score | total luciferase, % of control | luciferase per cell, z-score | viable cells, % of control |
| --- | --- | --- | --- | --- | --- |
| PSG1 | 1 | 0.0724 | 83.3 | 0.735 | 76.7 |
| PSG1 | 2 | 0.376 | 89.4 | 0.637 | 84.4 |
| PSG1 | 3 | -1.55 | 51.1 | -1.49 | 84.5 |
| BHLHE22 | 1 | -1.32 | 55.7 | -0.675 | 74.4 |
| BHLHE22 | 2 | 0.162 | 85.1 | 0.0573 | 93.7 |
| BHLHE22 | 3 | 0.376 | 89.4 | 0.556 | 86.3 |
| LOC728999 (retired record) | 1 | 0.917 | 100 | 2.21 | 62.5 |
| LOC728999 (retired record) | 2 | 4.82 (active) | 178 | 2.99 | 90.4 |
| LOC728999 (retired record) | 3 | -0.511 | 71.7 | -0.783 | 98.5 |

Next part; the last 2 above are carried over.
| Target gene | reagent | total luciferase, z-score | total luciferase, % of control | luciferase per cell, z-score | viable cells, % of control |
| --- | --- | --- | --- | --- | --- |
| LOC728999 (retired record) | 2 | 4.82 (active) | 178 | 2.99 | 90.4 |
| LOC728999 (retired record) | 3 | -0.511 | 71.7 | -0.783 | 98.5 |
| DEF6 | 1 | 1.8 | 118 | 1.4 | 91 |
| DEF6 | 2 | -0.815 | 65.7 | 0.121 | 71.1 |
| DEF6 | 3 | -1.15 | 59.1 | -0.352 | 72.4 |
| ACADVL | 1 | -0.609 | 69.8 | -0.665 | 92.9 |
| ACADVL | 2 | 1.5 | 112 | 1.24 | 90.1 |
| ACADVL | 3 | 8.84 (active) | 258 | 4.68 | 84 |
| ADAMTSL5 | 1 | -0.453 | 72.9 | 0.23 | 76.7 |
| ADAMTSL5 | 2 | 0.000808 | 81.9 | 0.989 | 70.5 |
| ADAMTSL5 | 3 | -0.481 | 72.3 | -0.000374 | 80.8 |
| PREPL | 1 | 0.556 | 92.9 | 0.277 | 96.5 |
| PREPL | 2 | -0.547 | 71 | -0.153 | 82.6 |
| PREPL | 3 | 0.227 | 86.4 | -0.118 | 99.6 |
| THG1L | 1 | 0.402 | 89.9 | 1.23 | 72.7 |
| THG1L | 2 | 0.278 | 87.4 | -0.167 | 102 |
| THG1L | 3 | 0.516 | 92.1 | 0.492 | 90.4 |
